# Laboratory results reported in the supplement of paper PMC3334620.
# In all, about 33,000 sequences were measured (“E-score (-0.5 to 0.5)”: median about -8e-05, highest 2% from about 0.23 on). Some of the results follow.
# Biological target: T1, Nrg2 (UniProt P38082)
# T1 sequence: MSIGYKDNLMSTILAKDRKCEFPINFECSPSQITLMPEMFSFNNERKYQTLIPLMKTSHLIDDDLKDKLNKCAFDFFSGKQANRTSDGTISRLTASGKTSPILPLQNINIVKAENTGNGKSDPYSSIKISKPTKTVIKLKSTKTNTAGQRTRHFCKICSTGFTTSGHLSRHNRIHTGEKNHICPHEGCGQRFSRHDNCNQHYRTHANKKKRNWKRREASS
# Assay: PBM E-score (8-mer binding enrichment) (E-score (-0.5 to 0.5)); higher = stronger / more preferred TF binding
# Settings: protein concentration: 100 nM; construct: GST-full length
# Method in brief: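 Full-length yeast transcription factors or their DNA-binding domains, GST-tagged and expressed with PURExpress, were applied at about 100-200 nM to universal all-10-mer Agilent arrays. These arrays had been made double-stranded by primer extension on fresh or once-stripped slides. Detection used fluorescent anti-GST, normalisation used masliner, and E-scores for ungapped eight-base words pooled with reverse complements came from the Universal PBM Analysis Suite.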
row,Sequence,PBM E-score
1,AGGGCATC,-0.0906
2,AATACTAA,0.141
3,TGCACGCA,-0.0547
4,CCAAGAAA,0.0483
5,CATCCAGG,0.155
6,GGAACCAC,-0.0415
7,AAGCCGGC,0.0653
8,AGCGTATA,0.0997
9,CACTATAA,-0.139
10,ATATACTC,0.0973
11,AGCAATTG,0.176
12,ACGCAGCT,0.0108
13,GCGGTCTA,0.182
14,CCAAGGTC,-0.114
15,CGTGGTAG,-0.094
16,AAATCCGA,-0.0184
17,GTGACCTA,-0.0873
18,CGCTGATC,0.0411
19,CCCCATAC,0.101
20,CCTTGTAC,-0.132
21,AGTTTTGG,0.154
22,AGCTCAGG,0.139
23,CACCTCCA,-0.219
24,CACGTGCG,-0.0842
25,TAACAACA,0.103

row,Sequence,PBM E-score
1,ATTAGCCG,-0.0599
2,CTTGTTGC,0.0274
3,ACCATAGC,-0.0536
4,AAAAATTC,0.162
5,ACACGTTA,-0.135
6,AAAAGCAC,-0.181
7,CATGGGTA,-0.074
8,ATAATCAG,0.0745
9,CGTATGAC,-0.213
10,GTCTGGTA,-0.00183
11,GAGGACCC,0.174
12,TCTACCCA,-0.0386
13,GGCTCGAA,0.0374
14,GATGAAGC,-0.0335
15,AAGCCTGC,-0.0818
16,CCGCTGTC,-0.00919
17,CACGTAAG,-0.171
18,AAATACTA,0.00839
19,AAATTTGC,0.076
20,CCAGCAAA,0.132
21,TATACCGA,0.0393
22,ATTGACAA,-0.0343
23,CAATAGGG,0.149
24,ATAGCTGG,0.015
25,AGGGGCGG,0.164

row,Sequence,PBM E-score
1,ACCTAGCG,-0.0328
2,ACATTGTC,0.187
3,AAACCCAC,0.218
4,CGAGTCCC,-0.0143
5,GTTTAAGA,-0.156
6,ACAATTGA,0.113
7,ACGCAGAA,0.125
8,ACCGCAGC,-0.0437
9,AGTTTGAA,0.23
10,CTCTCAGC,-0.152
11,CCCGCTCG,-0.0307
12,CCACGGGC,-0.139
13,AGATTAAC,-0.0245
14,ATACCAGG,-0.0211
15,CAATGATC,-0.124
16,ATTGGACA,0.163
17,ATAGTACG,0.134
18,CATCGATG,0.0612
19,AAGCCAAG,0.00278
20,CTGCGACA,0.104
21,GGGCTACC,-0.183
22,CACACGGA,-0.0956
23,CACTAATA,0.133
24,AGACACCT,-0.0721
25,AGCATGCA,0.00231

row,Sequence,PBM E-score
1,AGCTCTAA,0.0849
2,CTCAAGAG,-0.217
3,CCTTACCG,-0.0752
4,ATATTGTA,0.0677
5,ATGTAGAC,-0.175
6,TAGGATGA,0.0549
7,GTATTGTA,0.192
8,ATAGTTAG,0.177
9,AAGCACTA,0.0443
10,TATTGGCA,0.134
11,CACTAGGA,-0.0863
12,GCTCCTTA,-0.0501
13,AACTACGA,0.077
14,TCGCCCCA,0.113
15,GGAGCGCC,-0.232
16,CCTCCGAC,-0.285
17,CCACTACC,-0.145
18,CTAACACA,0.161
19,CCCGAGCC,-0.119
20,ATGTTAGA,-0.18
21,CTATTATA,0.0933
22,AACAGGAA,-0.118
23,CATCTGTC,-0.0868
24,CCCAAATC,-0.0529
25,CCAGTCCA,-0.209

row,Sequence,PBM E-score
1,ATCACTCG,0.116
2,CCAGGATC,-0.169
3,CCTAAAGG,-0.103
4,GTTTTAGA,-0.0613
5,AGCTGCAG,0.0664
6,AGACTGCA,-0.239
7,AGCAGGTC,0.0487
8,AGTAAACG,-0.121
9,CAAATCAC,-0.0248
10,AGATGCCT,-0.171
11,CGATGAAA,0.0448
12,CATATGGG,0.123
13,GCCTCCGC,-0.0858
14,ACTCGACG,0.086
15,CCTCGGAC,0.135
16,GCGCCAAA,-0.0258
17,GTCGCACA,0.02
18,CCGATTAA,-0.0323
19,GCCGTCCC,0.059
20,CGTAACCC,0.0289
21,AATACTTC,0.132
22,CATTGTCC,0.129
23,ACATCGTC,0.1
24,GGACCCCA,0.236
25,ACCTCTAC,0.119

# In a second layout: entries from further up.
row	Sequence	PBM E-score
22	CACACGGA	-0.0956
23	CACTAATA	0.133
24	AGACACCT	-0.0721

# (listing goes on)

row,Sequence,PBM E-score
1,CGGTGCAG,-0.0852
2,GAGAGGTA,-0.185
3,CAACTTTC,0.163
4,GTTAACAA,0.254
5,AACAGTTC,0.151
6,CTCTTTGC,-0.063
7,CTCGACCC,0.00862
8,TATCTGAA,0.0833
9,AAGACGGA,0.0338
10,ATAGGAGC,-0.0899
11,AATTTCGA,0.0453
12,GAAGAGAA,-0.0264
13,CTAGACAC,-0.208
14,GTAGATTA,0.0978
15,TGCAGGAA,0.154
16,AAAAACCG,-0.124
17,ATAGGCTA,-0.0769
18,CCTAATTC,0.0103
19,AATTACAA,0.0791
20,AGATTTAT,0.0632
21,GGGGACGA,-0.0312
22,AACATAAA,-0.0006
23,ACAACACG,0.125
24,TTAGGCAA,0.00256
25,CCATACGG,-0.00757

row,Sequence,PBM E-score
1,ACTAGAGG,-0.221
2,ATCACTCA,0.106
3,GATCTAAA,-0.046
4,GGGAGCGA,-0.09
5,GACTCGCC,-0.23
6,GATACTCA,0.0583
7,CCGAGTGA,0.165
8,ACAATCTA,-0.0761
9,GGGATGCA,0.0407
10,GCTTAGCC,-0.0762
11,CATCTGGG,-0.164
12,ACGGCTTA,-0.124
13,CGCACACC,-0.0413
14,AACTAGAG,-0.0634
15,TGACTGAA,-0.024
16,ATCTACCG,0.0567
17,AGACACGA,0.073
18,TAACTATA,0.0211
19,GCGGCAGC,-0.221
20,GCCCAGGA,-0.0317
21,AATCGAAT,0.0933
22,GACTAGCA,-0.089

# Rewritten with bars between the fields: part of the list above.
row | Sequence | PBM E-score
9 | GGGATGCA | 0.0407
10 | GCTTAGCC | -0.0762
11 | CATCTGGG | -0.164
12 | ACGGCTTA | -0.124
13 | CGCACACC | -0.0413
